The values below come from PubChem BioAssay AID1487 (National Center for Advancing Translational Sciences (NCATS), 2009).

This assay can be described thus: qHTS Assay for Modulators of Lamin A Splicing. The note with it: HeLa LMNA splicing GFP/RFP minigene ratio, 48 h. In short, it runs like this: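 Read-out is the ratio of GFP to DsRed2 object intensity, acquired by 488 nm laser-scanning cytometry on HeLa lamin A-EGFP minigene reporter cells. Compound incubation 48 hrs at 37 °C in Opti-MEM with 2% FBS; DMSO 0.5% final.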

Setting [1] is: measured here: RFP viability control channel.
[2] abbreviates: measured here: GFP splicing reporter channel.

The other results are listed elsewhere or left out. These are further read-outs of the screen, such as a control signal, another cell line or another target. No call is given for them. Compounds called inactive in the main read-out are mostly missing here. Potencies come from curve fits of mixed quality, noted in brackets.

The term AC50 denotes the midpoint of the concentration-response curve, whichever way the signal moves. Turning to `O=C(NCC(c1cccs1)N1CCOCC1)c1cccc([N+](=O)[O-])c1` (stereo not given), the AC50 under setting [1] was 17.8 µM [rising, single point].

Take `CN(C1CCCC1)C1CCN(C(=O)CNC(=O)/C=C/c2ccccc2)CC1`: under setting [1], the AC50 was 35.5 µM [rising, single point].

For `O=C(CCCN1C(=O)/C(=C/c2ccccc2Cl)SC1=S)NNC(=O)c1ccccc1Cl`, the AC50 under setting [1] was 2.82 µM [rising, full curve, poor fit].

On to `COC(=O)Cn1ncc2c(C)n(Cc3ccccc3)c(C)c2c1=O`, for which the AC50 under setting [1] is 14.1 µM [rising, single point].

Take `O=C(c1ccc2c(c1)OCCO2)N(Cc1cccnc1)c1nc2c(F)cccc2s1`: the AC50 reads like this: under setting [2], 0.316 µM [rising, full curve, poor fit]; under setting [1], 22.4 µM [rising, partial curve, poor fit].

`CCN1C(=O)C2(Nc3ccccc3-c3nc4ccccc4n32)c2cc(OC)ccc21` (stereo not given): the AC50 runs as follows: under setting [2], 0.316 µM [rising, partial curve, poor fit]; under setting [1], 5.01 µM [rising, partial curve].

For `CC1CCN(S(=O)(=O)c2ccc(C(=O)Nc3sccc3C(N)=O)cc2)CC1`, under setting [1], the half-maximal activity concentration (AC50) was 35.5 µM [rising, single point].

Regarding `COc1ccc(/C=C/C(=O)c2ccccc2)cc1Cn1nnc2ccccc21`, the half-maximal activity concentration (AC50) under setting [2] is 35.5 µM [falling, single point] and the AC50 under setting [1] was 35.5 µM [falling, single point].

With `Cn1c(C(=O)NCCc2ccccc2)cc2c(=O)n3ccccc3nc21`, the AC50 by setting is: under setting [2], 2 µM [rising, partial curve]; under setting [1], 3.16 µM [rising, partial curve, poor fit].

Regarding `COc1ccc(-c2nc3cc(NC(=O)Cc4ccc(OC)c(OC)c4)ccc3o2)cc1`, under setting [1], the AC50 was 3.98 µM [rising, full curve].

With `OC(COC(c1ccccc1)c1ccccc1)CN1CCc2ccccc2C1` (stereo not given), the AC50 runs as follows: under setting [2], 20 µM [rising, single point]; under setting [1], 35.5 µM [rising, single point].

Regarding `CCCN1C(=O)/C(=C/c2c(NCCCOC(C)C)nc3c(C)cccn3c2=O)SC1=S`, the AC50 under setting [1] was 11.2 µM [falling, partial curve, poor fit].

Take `CC1=C(CC(=O)O)c2cc(F)ccc2/C1=C\c1ccc(S(C)=O)cc1` (stereo not given): under setting [1], the AC50 was 0.00562 µM [falling, full curve, poor fit].

For the compound `O=C1C=C(c2ccccc2)CC(/C=C/c2ccccc2)C1` (stereo not given), the AC50 under setting [1] was 35.5 µM [rising, single point].

On to `COc1ccccc1NC(=S)NC1CCC(CC2CCC(NC(=S)Nc3ccccc3OC)CC2)CC1` (stereo not given), for which the AC50 was 10 µM [rising, single point] under setting [2] and 10 µM [rising, partial curve] under setting [1].

With `O=C(Oc1ccccc1/C=C\C(=O)c1cc2ccccc2o1)c1cccc(F)c1`, under setting [1], the AC50 was 17.8 µM [rising, partial curve, poor fit].

In the case of `N#C/C(=C/c1ccc(Br)o1)C(N)=O`, the AC50 under setting [1] is 15.8 µM [rising, partial curve, poor fit].

Consider `Cc1onc(-c2ccccc2)c1-c1ccc(S(N)(=O)=O)cc1`, for which the AC50 under setting [2] is 31.6 µM [falling, single point] and the AC50 under setting [1] was 35.5 µM [falling, single point].

Take `C/C(=N\NC(=O)C1COc2ccccc2O1)c1ccccn1` (stereo not given): under setting [1], the AC50 is 25.1 µM [rising, partial curve].

For `COc1cc(CN2CCN(CCc3ccccc3)C(CCO)C2)cc(OC)c1` (stereo not given), the AC50 under setting [1] is 0.1 µM [falling, full curve, poor fit].

On to `O=C(c1ccco1)N1CCN(c2ccc([N+](=O)[O-])c(N3CCOCC3)c2)CC1`, for which the AC50 under setting [1] is 22.4 µM [rising, partial curve].

Consider `C=CCn1c(C)cc(C(=O)CSc2nc3ccccc3o2)c1C`, for which the AC50 under setting [1] is 14.1 µM [rising, partial curve].

Consider `Cc1cc(C(=O)OCC(=O)Nc2cc(C(F)(F)F)ccc2N2CCOCC2)c(C)o1`, for which the AC50 is, setting by setting: under setting [2], 35.5 µM [rising, single point]; under setting [1], 28.2 µM [rising, single point].

`O=S(=O)(c1ccccc1)c1nc(Nc2cccc(O)c2)sc1Cl`: the AC50 reads like this: under setting [2], 0.562 µM [rising, full curve, poor fit]; under setting [1], 12.6 µM [rising, partial curve].

As to `CN(c1ccccc1)S(=O)(=O)c1cccc(NC(=O)CN2CCc3ccccc3C2)c1`, under setting [2], the AC50 was 7.08 µM [falling, partial curve, poor fit].

For `Cc1cccc(N2CCN(C(=O)n3ccnc3)CC2)c1C`, the concentration at half-maximal activity (AC50) under setting [1] is 35.5 µM [rising, single point].

As to `CNC(=O)C1CCC(Cn2c(=O)[nH]c3ccsc3c2=O)CC1` (stereo not given), the concentration at half-maximal activity (AC50) was 0.00891 µM [falling, full curve, poor fit] under setting [2] and 1.58 µM [falling, partial curve, poor fit] under setting [1].

For `CN(Cc1ccccc1)S(=O)(=O)c1ccc(NC(=S)NC(=O)C2CCCCC2)cc1`, the AC50 under setting [1] is 25.1 µM [rising, single point].

For `CN(Cc1ccccc1)c1nc(N)nc(Cl)c1C=O`, under setting [2], the AC50 was 0.0316 µM [falling, full curve, poor fit].

On to `CC(C)(C)c1nnc(N/N=C/c2ccc(Br)cc2)n(N)c1=O`, for which the AC50 under setting [1] is 15.8 µM [rising, single point].

Take `Cc1nc2ccc(S(=O)(=O)Nc3cccc(-c4nc5cccnc5s4)c3C)cc2s1`: the AC50 under setting [1] was 2.82 µM [rising, full curve].

In the case of `Cc1nnc(SCC(=O)N/N=C/c2ccc(-c3ccc(C)c(Cl)c3)o2)s1`, the AC50 under setting [1] is 0.0794 µM [rising, full curve, poor fit].

Regarding `N#Cc1c(NC(=O)CSc2nc(N)cc(=O)[nH]2)sc2c1CCCCCC2`, under setting [1], the concentration at half-maximal activity (AC50) was 2.51 µM [rising, single point].

With `N#C/C(=C\c1ccccn1)c1nc2ccccc2s1`, the AC50 under setting [1] was 3.55 µM [falling, partial curve].

Take `O=C(Nc1cccnc1)c1noc2c1CCCC2`: the AC50 under setting [1] is 0.02 µM [falling, full curve, poor fit].

In the case of `N#CC(C#N)=C1C=CC=CN1/C(=C\c1ccco1)C(=O)c1ccccc1`, the concentration at half-maximal activity (AC50) runs as follows: under setting [2], 3.98 µM [falling, single point]; under setting [1], 3.16 µM [falling, single point].

Turning to `CN1CCN(c2nc(-c3cc4ccccc4o3)cs2)CC1`, the AC50 is, setting by setting: under setting [2], 0.355 µM [rising, full curve, poor fit]; under setting [1], 0.355 µM [rising, full curve, poor fit].

For the compound `Cc1ccc(NS(=O)(=O)c2ccc3c(c2)NC(=O)CCS3)cc1C`, under setting [2], the AC50 was 15.8 µM [falling, single point].

As for `Cc1cccc(OC(=O)c2cc(-c3ccc4c(c3)OCCO4)on2)c1`, the AC50 is, setting by setting: under setting [2], 0.0355 µM [falling, full curve, poor fit]; under setting [1], 0.0178 µM [falling, full curve].

With `Cc1ccsc1/C=N/n1c(COc2ccccc2)n[nH]c1=S`, the AC50 under setting [1] was 7.08 µM [rising, partial curve].

As for `Cc1c(C(=O)N2CCN(Cc3ccc4c(c3)OCO4)CC2)cccc1[N+](=O)[O-]`, the half-maximal activity concentration (AC50) under setting [2] was 31.6 µM [rising, single point].

In the case of `CCN(CC)S(=O)(=O)c1ccc(C(=O)Nc2nc3c(Cl)cc(Cl)cc3s2)cc1`, the AC50 reads like this: under setting [2], 3.16 µM [rising, partial curve]; under setting [1], 4.47 µM [rising, partial curve].

Consider `O=C1CC(N2CCN(c3ccc(O)cc3)CC2)C(=O)N1Cc1cccs1` (stereo not given), for which the AC50 under setting [1] was 14.1 µM [rising, single point].

`Cc1cccc2cc(-c3ccccc3)c(-c3ccccc3)c[n+]12`: the half-maximal activity concentration (AC50) runs as follows: under setting [2], 14.1 µM [rising, partial curve]; under setting [1], 7.94 µM [rising, partial curve].

Take `CCOc1ccc(NCc2ccccc2OCc2cccc(F)c2)cc1`: under setting [1], the AC50 was 12.6 µM [rising, single point].

On to `Oc1c(CN2CCOCC2)ccc2ccccc12`, for which the AC50 runs as follows: under setting [2], 35.5 µM [falling, single point]; under setting [1], 4.47 µM [falling, partial curve, poor fit].

Regarding `Cc1ccc(CNC(=O)CSc2nc(=O)[nH]c3c2CCCC3)cc1`, the AC50 under setting [1] is 0.708 µM [falling, full curve, poor fit].

In the case of `CCCC1C(C(=O)OCC)=C(C)NC(C)=C1C(=O)OCC`, the AC50 by setting is: under setting [2], 7.08 µM [rising, partial curve, poor fit]; under setting [1], 17.8 µM [rising, single point].

On to `N#Cc1nc(-c2ccc(COc3ccccc3)o2)oc1NCc1ccccc1`, for which, under setting [1], the AC50 was 3.98 µM [falling, full curve, poor fit].

As to `COc1ccc(-c2oc3cc(O[C@@H]4OC(CO)C(O)C(O)C4O)c(OC)c(O)c3c(=O)c2OC)cc1O` (stereo not given in full), the AC50 reads like this: under setting [2], 35.5 µM [falling, single point]; under setting [1], 7.08 µM [falling, single point].

Turning to `O=C(CN1CCN(c2ccc(O)cc2)CC1)Nc1ccc(SC(F)F)cc1`, the AC50 under setting [1] is 7.94 µM [rising, partial curve, poor fit].

Turning to `Cc1nc2ccccc2n1CCc1nc2c3ccccc3nc(SCC(=O)Nc3ccc(Br)cc3F)n2n1`, the AC50 under setting [1] was 35.5 µM [falling, single point].

Take `CC(=O)Nc1ccc(C2=NN(Cc3nnc(-c4ccccc4)o3)C(=O)SC2)cc1`: the concentration at half-maximal activity (AC50) under setting [1] was 15.8 µM [rising, single point].

Turning to `O=C(Nc1ccccc1)c1cc([N+](=O)[O-])ccc1Cl`, the AC50 under setting [2] is 1.41 µM [rising, full curve, poor fit] and the AC50 under setting [1] is 11.2 µM [rising, partial curve].

With `Cc1cccc(-c2nsc(SCC(=O)c3ccc(Cl)cc3)n2)c1`, the AC50 under setting [1] is 35.5 µM [rising, single point].

As to `CC(Oc1ccc(Cl)cc1)C(=O)NNC(=S)NC(=O)c1ccco1` (stereo not given), the AC50 under setting [1] is 1 µM [rising, full curve, poor fit].
